{"source": "PubChem BioAssay AID587", "about": "(National Center for Advancing Translational Sciences (NCATS), 2007)", "note": "About 35 (0.06%) of roughly 59,000 compounds were called active. Inconclusive means that the source gave no clear call. Such entries were picked first, then a sample of the others. Rule as the data show it: active = max dye-equivalent concentration above about 10 nM; inconclusive = between about 1.1 nM and that limit; inactive = weaker than that."}
{"assay": "qHTS Assay for Spectroscopic Profiling in Texas Red Spectral Region", "settings": "Compound fluorescence, Texas Red channel, 547/618 nm; active compounds read high", "how_it_was_run": "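Dye-equivalent concentrations come from scaling compound signal (ex 547, em 618 nm) to six Texas Red standard concentrations run on every plate, after 15 min room-temperature incubation in pH 8.0 Tris (100 mM).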"}
{"compound": "CCOc1cc2c3c(c1)C1(C(=O)N3C(C)(C)C=C2C)C(C#N)=C(N)Oc2cc(O)ccc21", "note": "(stereo not given)", "max dye-equivalent concentration": "inconclusive: 1.1 nM"}
{"compound": "Cn1c(=O)c2c(nc(CN3CCN(c4ccccc4)CC3)n2Cc2ccccc2F)n(C)c1=O", "max dye-equivalent concentration": "inconclusive: 1.7 nM"}
{"compound": "CN(CCOC(=O)c1ccc2c(c1)OCCO2)Cc1ccccc1", "max dye-equivalent concentration": "inconclusive: 1.1 nM"}
{"compound": "C=CCNc1ccc(F)c(F)c1N1CCCCCC1=O", "max dye-equivalent concentration": "inconclusive: 1.4 nM"}
{"compound": "CC1(C)Cc2c(c(-c3ccco3)[nH]c(=O)c2C#N)CS1", "max dye-equivalent concentration": "inconclusive: 1.3 nM"}
{"compound": "CCOC(=O)Nc1ccccc1N1C(=O)c2ccccc2C1=O", "max dye-equivalent concentration": "inconclusive: 1.6 nM"}
{"compound": "O=C(O)Cn1cc(C(=O)c2cccs2)c2ccccc21", "max dye-equivalent concentration": "inconclusive: 1.3 nM"}
{"compound": "CN(CC(=O)N1CCN(C2CCCCC2)CC1)S(=O)(=O)c1cccc2nsnc12", "max dye-equivalent concentration": "inconclusive: 1.2 nM"}
{"compound": "Cc1ccc(S(=O)(=O)N(C)c2nonc2C)cc1", "max dye-equivalent concentration": "inconclusive: 1.1 nM"}
{"compound": "O=C(COC(=O)CCc1ccc(S(=O)(=O)N2CCOCC2)cc1)Nc1ccc(Cl)cn1", "max dye-equivalent concentration": "inconclusive: 1.6 nM"}
{"compound": "COC(=O)c1ccccc1NC(=O)CSc1nnc(COc2cccc(OC)c2)n1C", "max dye-equivalent concentration": "inconclusive: 1.1 nM"}
{"compound": "Clc1ccccc1-c1nccc(NCc2cccs2)n1", "max dye-equivalent concentration": "inactive"}
{"compound": "CCOc1cc(CO)ccc1OCC(=O)N1CCCCC1", "max dye-equivalent concentration": "inconclusive: 2.3 nM"}
{"compound": "O=c1ccn([C@@H]2O[C@@H](COP(=O)(O)OP(=O)(O)O)[C@H](O)[C@@H]2O)c(=O)[nH]1", "max dye-equivalent concentration": "inactive"}
{"compound": "CCOc1cc(S(=O)(=O)N(CC)CC)ccc1Br", "max dye-equivalent concentration": "inconclusive: 1.8 nM"}
{"compound": "COc1ccc(S(=O)(=O)N(C)CC(=O)Nc2c(F)cccc2F)cc1", "max dye-equivalent concentration": "inconclusive: 1.3 nM"}
{"compound": "COc1ccc(-c2nc(S(=O)(=O)c3ccc(C)cc3)c(N3CCCC3)o2)cc1", "max dye-equivalent concentration": "inconclusive: 1.3 nM"}
{"compound": "CC(C)C1CC(c2csc(N)n2)CCO1", "note": "(stereo not given)", "max dye-equivalent concentration": "inconclusive: 1.1 nM"}
{"compound": "Cc1cnc(CNc2ccnc(-c3ccccc3C)n2)cn1", "max dye-equivalent concentration": "inconclusive: 1.1 nM"}
{"compound": "COc1ccc(C2CNC(=O)C2)cc1OC1CCCC1", "note": "(stereo not given)", "max dye-equivalent concentration": "inactive"}
{"compound": "O=C(c1ccc(S(=O)(=O)N2CCOCC2)cc1)N1CCN(c2ccccc2F)CC1", "max dye-equivalent concentration": "inconclusive: 1.6 nM"}
{"compound": "CCCOc1ccc(-c2nnc(-c3ccncc3)o2)cc1", "max dye-equivalent concentration": "inactive"}
{"compound": "CCNc1ncc2nc(-c3ccccc3)c(=O)n(Cc3cccc(OC)c3)c2n1", "max dye-equivalent concentration": "inactive"}
{"compound": "CN1/C(=C/C(=O)c2nc(S(C)(=O)=O)ncc2Cl)C(C)(C)c2ccccc21", "max dye-equivalent concentration": "inconclusive: 1.9 nM"}
{"compound": "CN1C(=O)NC(NC(=O)C2CCCCC2)(C(F)(F)F)C1=O", "note": "(stereo not given)", "max dye-equivalent concentration": "inconclusive: 1.2 nM"}
{"compound": "CN(C)Cc1c(O)ccc2occ(C(=O)c3ccccc3)c12", "max dye-equivalent concentration": "inconclusive: 1.3 nM"}
{"compound": "Cc1ccc(CNC(=O)CSc2nc(N3CCCCC3)nc(N3CCCCC3)n2)cc1", "max dye-equivalent concentration": "inconclusive: 1.4 nM"}
{"compound": "O=C(CCCn1c(SCC(=O)c2ccc(F)cc2)nc2ccccc2c1=O)NCc1ccco1", "max dye-equivalent concentration": "inconclusive: 1.2 nM"}
{"compound": "Cc1nn2c3c(cnc2c1-c1ccccc1)C(=O)CC(C)C3", "note": "(stereo not given)", "max dye-equivalent concentration": "inconclusive: 1.5 nM"}
{"compound": "Cc1cc(/N=C/C=C2\\N(C)c3ccccc3C2(C)C)n(CCC#N)n1", "max dye-equivalent concentration": "inconclusive: 1.4 nM"}
{"compound": "Cn1c(=O)c2c(ncn2CC(=O)Nc2ccccc2Sc2ccccc2)n(C)c1=O", "max dye-equivalent concentration": "inconclusive: 1.3 nM"}
{"compound": "CCOC(=O)CSc1nnc(-c2ccco2)n1-c1ccccc1", "max dye-equivalent concentration": "inconclusive: 1.1 nM"}
{"compound": "COc1ccccc1N(CC(=O)NC1CCCCC1)C(=O)CCC(=O)Nc1ccccn1", "max dye-equivalent concentration": "inconclusive: 1.6 nM"}
{"compound": "Cc1cc2c(c(=O)n1C1CC1)C(c1cccc(Cl)c1)C(C#N)=C(N)O2", "note": "(stereo not given)", "max dye-equivalent concentration": "inconclusive: 1.2 nM"}
{"compound": "Cc1cccc(NS(=O)(=O)c2ccc(Oc3ccccc3)cc2)n1", "max dye-equivalent concentration": "inconclusive: 1.4 nM"}
{"compound": "CCn1cc(C(=O)NCC2CCCO2)c(=O)c2cc(S(=O)(=O)N3CCC(C)CC3)ccc21", "note": "(stereo not given)", "max dye-equivalent concentration": "inconclusive: 2.6 nM"}
{"compound": "CCOC(=O)c1[nH]c2cc(OC)c(OC)cc2c1NC(=O)CN1CCN(C)CC1", "max dye-equivalent concentration": "inconclusive: 1.1 nM"}
{"compound": "COc1cc(NC(=O)C(C)Oc2ccccc2)c(C(=O)O)cc1OC", "note": "(stereo not given)", "max dye-equivalent concentration": "inconclusive: 1.1 nM"}
{"compound": "NCCCCCc1nnc(SCC(=O)c2ccc(Cl)cc2)o1", "max dye-equivalent concentration": "inconclusive: 1.5 nM"}
{"compound": "COC(=O)c1c(NC(=O)c2cccs2)sc2c1CCC(C)C2", "note": "(stereo not given)", "max dye-equivalent concentration": "inconclusive: 1.6 nM"}
{"compound": "CCn1c(SCC(=O)Nc2cc(NC(C)=O)ccc2OC)nnc1-c1ccncc1", "max dye-equivalent concentration": "inconclusive: 1.3 nM"}
{"compound": "O=C1c2ccccc2C(=O)N1CCCCn1c(=O)oc2ccccc21", "max dye-equivalent concentration": "inconclusive: 2.3 nM"}
{"compound": "Cn1c(=O)c2c(nc(N3CCNCC3)n2Cc2cccc3ccccc23)n(C)c1=O", "max dye-equivalent concentration": "inconclusive: 1.2 nM"}
{"compound": "COc1cccc(C(=O)c2cc3ccc(O)cc3oc2=O)c1", "max dye-equivalent concentration": "inconclusive: 1.1 nM"}
{"compound": "NC([N-]/N=C/c1ccccn1)=[S]=[Fe].O=S(=O)(O)O", "max dye-equivalent concentration": "inactive"}
{"compound": "CN(C)c1ccc(C(c2nnnn2C(C)(C)C)N2CCc3ccccc3C2)cc1", "note": "(stereo not given)", "max dye-equivalent concentration": "inconclusive: 1.2 nM"}
{"compound": "COc1cc(C)c(Cl)cc1S(=O)(=O)NCc1ccco1", "max dye-equivalent concentration": "inconclusive: 1.1 nM"}
{"compound": "CCN(CC)P(=O)(/C(Cl)=C\\Nc1c(C)n(C)n(-c2ccccc2)c1=O)N(CC)CC", "max dye-equivalent concentration": "inconclusive: 1.5 nM"}
{"compound": "CC(C)C[C@H](NC(=O)[C@@H](O)[C@@H](N)Cc1ccccc1)C(=O)O", "max dye-equivalent concentration": "inactive"}
{"compound": "CC(=O)OC(C(=O)NC1CCCCC1)c1ccc(C)cc1", "note": "(stereo not given)", "max dye-equivalent concentration": "inconclusive: 1.6 nM"}
{"compound": "COCC(=O)Nc1nnc(CCc2ccccc2)s1", "max dye-equivalent concentration": "inconclusive: 1.2 nM"}
{"compound": "N#Cc1cc(N)c(Nc2ccccc2)cc1C#N", "max dye-equivalent concentration": "inconclusive: 1.1 nM"}
{"compound": "CCOc1ccc(/C(O)=C2/C(=O)C(=O)N(Cc3cccnc3)C2c2ccc(N(C)C)cc2)c(C)c1", "note": "(stereo not given)", "max dye-equivalent concentration": "inconclusive: 1.5 nM"}
{"compound": "CCOC(=O)COc1nc(Nc2ccccc2C)nc(N(C)C)n1", "max dye-equivalent concentration": "inconclusive: 1.4 nM"}
{"compound": "Nc1nc2c(C(=O)NCc3cccs3)nnn2c2cccc(Cl)c12", "max dye-equivalent concentration": "inconclusive: 1.5 nM"}
